Experimental data: PubChem BioAssay AID504744 (Drosophila RNAi Screening Center, 2011)
Screen: 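Identify dsRNAs that increase or decrease phospho-dAkt after insulin treatment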 (primary screen). Cells: Drosophila Kc167 cells. Reagents: long dsRNA against Drosophila genes, 250 ng dsRNA per well of a 384-well plate. Time to read-out: 3 days of knock-down, then overnight serum-free starvation before stimulation. Treatment: bovine insulin at 387 nM for 10 minutes after 12 h without serum. Measured: 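Per-well phospho-dAkt level from an in-cell fluorescent antibody stain, divided by a DNA-dye signal; log2 residuals turned into z-scores that take cell number into account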. Hit rule: 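Hit in the insulin screen when the two-replicate mean z-score is more extreme than plus or minus 2.5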.
The deposit covers about 23,000 reagents; shown is an unselected part of those that have a named target and a result. In the full data, 98 (0.43%) got an active call. 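Only hit calls are given; the phospho-dAkt signals, z-scores and hit direction were not deposited.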 The numbers tell different reagents against one gene apart. Names joined by + are all predicted targets of the reagent.

no.	target gene	dsRNA no.	call
1	asRNA:Eig63F-2 + Eip63F-1	1	inactive
2	PGRP-LD + Cralbp + Pmi	1	inactive
3	CG2218 (GeneID 43611)	1	inactive
4	Ekar (GeneID 43806)	1	inactive
5	Grx1t (GeneID 37483)	1	inactive
6	fs(1)K10 (GeneID 47781)	1	inactive
7	iav (GeneID 31621)	1	inactive
8	CG11400 (GeneID 36935)	1	inactive
9	CG34033 (GeneID 3885602)	1	inactive
10	CG34243 (retired record) (GeneID 5740341)	1	inactive
11	CG34243 (retired record) (GeneID 5740341)	2	inactive
12	Spn55B (GeneID 49803)	1	inactive
13	Spn55B (GeneID 49803)	2	inactive
14	SerT (GeneID 37895)	1	inactive
15	CG2269 (GeneID 36056)	1	inactive
16	Cog6 (GeneID 35953)	1	inactive
17	CG8157 (GeneID 36700)	1	inactive
18	CG8157 (GeneID 36700)	2	inactive
19	sha (GeneID 36213)	1	inactive
20	MFS10 (GeneID 32263)	1	inactive
21	CG1537 (GeneID 32037)	1	inactive
22	babos (GeneID 37557)	1	inactive
23	babos (GeneID 37557)	2	inactive
24	CG5339 (GeneID 37794)	1	inactive
25	Dh31-R (GeneID 36475)	1	inactive
26	Dh31-R (GeneID 36475)	2	inactive
27	CG6470 (GeneID 32840)	1	inactive
28	Orc1 (GeneID 35686)	1	inactive
29	CG15249 (GeneID 31924)	1	inactive
30	nau (GeneID 42799)	1	inactive
31	plh (GeneID 40615)	1	inactive
32	bb8 (GeneID 42756)	1	inactive
33	Ir94c (GeneID 318727)	1	inactive
34	CG11893 (GeneID 43056)	1	inactive
35	CG11596 (GeneID 31158)	1	inactive
36	Obp51a (GeneID 246666)	1	inactive
37	Npc2a (GeneID 33374)	1	inactive
38	CG32202 (GeneID 326199)	1	inactive
39	Sgs5bis (GeneID 42113)	1	inactive
40	spo (GeneID 38631)	1	inactive
41	CG30403 (GeneID 246595)	1	inactive
42	Taf10b (GeneID 33468)	1	inactive
43	Osi17 (GeneID 40774)	1	inactive
44	Gapdh1 (GeneID 35728)	1	inactive
45	CG14304 (GeneID 42232)	1	inactive
46	CG12003 (GeneID 38183)	1	inactive
47	ldbr (GeneID 38900)	1	inactive
48	tna (GeneID 39217)	1	inactive
49	tna (GeneID 39217)	2	inactive
50	CG8750 (GeneID 50285)	1	inactive
51	CG11560 (GeneID 39376)	1	inactive
52	CG30369 (GeneID 246572)	1	inactive
53	CG4286 (GeneID 37416)	1	inactive
54	CG5089 (GeneID 36859)	1	inactive
55	Cnot4 (GeneID 34416)	1	inactive
56	Cnot4 (GeneID 34416)	2	inactive
57	btz (GeneID 43331)	1	inactive
58	PolE4 (GeneID 37560)	1	inactive
59	CG10031 (GeneID 33594)	1	inactive
60	Obp47b + CG7741	1	inactive
61	dom (GeneID 45655)	1	inactive
62	dom (GeneID 45655)	2	inactive
63	CR11023 (GeneID 33155)	1	inactive
64	ninaD (GeneID 326160)	1	inactive
65	CG31007 (GeneID 318553)	1	inactive
66	Msp300 (GeneID 3771968)	1	inactive
67	Msp300 (GeneID 3771968)	2	inactive
68	Msp300 (GeneID 3771968)	3	inactive
69	Msp300 (GeneID 3771968)	4	inactive
70	Msp300 (GeneID 3771968)	5	inactive
71	Msp300 (GeneID 3771968)	6	inactive
72	Msp300 (GeneID 3771968)	7	inactive
73	CG7907 (GeneID 42539)	1	inactive
74	nAChRalpha3 (GeneID 31767)	1	inactive
75	pigeon (GeneID 35200)	1	inactive
76	CG15701 (GeneID 36801)	1	inactive
77	MED26 (GeneID 43816)	1	inactive
78	MED26 (GeneID 43816)	2	inactive
79	MED26 (GeneID 43816)	3	inactive
80	Vm26Ab (GeneID 33827)	1	inactive
81	CG33784 (GeneID 3772181)	1	inactive
82	CG5973 (GeneID 34023)	1	inactive
83	alpha-Est5 (GeneID 40905)	1	inactive
84	CG17782 (GeneID 42912)	1	inactive
85	Edc3 (GeneID 39957)	1	inactive
86	B52 (GeneID 41670)	1	inactive
87	CG46491 (GeneID 36929)	1	inactive
88	CG46491 (GeneID 36929)	2	inactive
89	CG9356 (GeneID 41122)	1	inactive
90	red (GeneID 41738)	1	inactive
91	CG14370 (GeneID 41659)	1	inactive
92	CG10339 (GeneID 37854)	1	inactive
93	Mst84B (GeneID 40840)	1	inactive
94	PolZ2 (GeneID 40677)	1	inactive
95	Patsas (GeneID 34634)	1	inactive
96	Prosalpha4T2 (GeneID 37910)	1	inactive
97	CG2926 (GeneID 40676)	1	inactive
98	CG17107 (GeneID 34467)	1	inactive
99	CG17107 (GeneID 34467)	2	inactive
100	CG15530 (GeneID 43589)	1	inactive
101	Myd88 (GeneID 35956)	1	inactive
102	Smn (GeneID 39844)	1	inactive
103	CG32086 (GeneID 326195)	1	inactive
104	Fs(2)Ket (GeneID 35336)	1	inactive
105	TTLL4B (GeneID 33609)	1	inactive
106	Inx6 (GeneID 31645)	1	inactive
107	CG1317 (GeneID 38300)	1	inactive
108	eIF5B (GeneID 44261)	1	inactive
109	eIF5B (GeneID 44261)	2	inactive
110	CG13623 (GeneID 42926)	1	inactive
111	CG8136 (GeneID 41037)	1	inactive
112	CG16734 (GeneID 41100)	1	inactive
113	eIF4E6 (GeneID 43422)	1	inactive
114	ric8a (GeneID 31874)	1	inactive
115	Nlg1 (GeneID 40913)	1	inactive
116	Nlg1 (GeneID 40913)	2	inactive
117	Nlg1 (GeneID 40913)	3	inactive
118	Nlg1 (GeneID 40913)	4	inactive
119	CG3225 (GeneID 33680)	1	inactive
120	CG30110 (GeneID 246462)	1	inactive
121	nAChRalpha6 (GeneID 34304)	1	inactive
122	nAChRalpha6 (GeneID 34304)	2	inactive
123	eIF3d1 (GeneID 42789)	1	inactive
124	CG13807 (GeneID 38290)	1	inactive
125	IP3K1 (GeneID 34300)	1	inactive
126	CG13917 (GeneID 38186)	1	inactive
127	CG1631 (GeneID 33029)	1	inactive
128	lbm (GeneID 35623)	1	inactive
129	Elba3 (GeneID 33670)	1	inactive
130	Uros2 (GeneID 41908)	1	inactive
131	CG18178 (GeneID 39138)	1	inactive
132	Hsp83 (GeneID 38389)	1	inactive
133	nclb (GeneID 36150)	1	inactive
134	CG32440 (GeneID 318030)	1	inactive
135	CG30280 (GeneID 37522)	1	inactive
136	SelR (GeneID 41309)	1	inactive
137	CG15083 (GeneID 37175)	1	inactive
138	CG14720 (GeneID 41415)	1	inactive
139	nebu (GeneID 39458)	1	inactive
140	nebu (GeneID 39458)	2	inactive
141	CG10053 (GeneID 40871)	1	inactive
142	egh (GeneID 31239)	1	inactive
143	pre-mod(mdg4)-AD + mod(mdg4) + pre-mod(mdg4)-X + 3 more	1	inactive
144	robo1 (GeneID 37603)	1	inactive
145	lqfR (GeneID 42632)	1	inactive
146	lqfR (GeneID 42632)	2	inactive
147	CG10862 (GeneID 38437)	1	inactive
148	CG30109 (GeneID 246461)	1	inactive
149	GstE13 (GeneID 35928)	1	inactive
150	CG31111 (GeneID 318595)	1	inactive
151	edin (GeneID 317900)	1	inactive
152	CG32708 (GeneID 318161)	1	inactive
153	omd (GeneID 41674)	1	inactive
154	Sytbeta (GeneID 39630)	1	inactive
155	Sytbeta (GeneID 39630)	2	inactive
156	CG15353 (GeneID 50191)	1	inactive
157	CG13998 (GeneID 50423)	1	inactive
